Some of the results follow.
Columns and labels:
Experiment in all cases: log2 fold change, soluble protein after heating vs DMSO (PISA); higher = thermal stabilisation; K562 cells, 10 uM, 30 min; active = over 0.2 and 3.5 SD of the protein, either way, in both replicates (recomputed)
[1] = compound: CC[C@@H]1C(=O)N(C)c2cnc(Nc3ccc(C(=O)NC4CCN(C)CC4)cc3OC)nc2N1C1CCCC1
In short: (§1)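 K562 cells at 2×10^6 cells/mL were treated for 30 min with 10 μM compound, and aliquots were heated for 3 min over 48°C-58°C before pooling. Extraction used PBS with 0.5% NP-40 at 4°C, and soluble protein was the supernatant after 21,000xg for 90 min, measured by TMTpro 16plex LC-MS/MS with channel sums equalised. Thermal stability values, relative to control samples and from duplicates, are log2 fold changes.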

Chains of the proteins cited; added tags and fusions are not shown. Lines headed by an entry give the natural chain unless they say otherwise; changes in a name come on top.
UniProt P42126: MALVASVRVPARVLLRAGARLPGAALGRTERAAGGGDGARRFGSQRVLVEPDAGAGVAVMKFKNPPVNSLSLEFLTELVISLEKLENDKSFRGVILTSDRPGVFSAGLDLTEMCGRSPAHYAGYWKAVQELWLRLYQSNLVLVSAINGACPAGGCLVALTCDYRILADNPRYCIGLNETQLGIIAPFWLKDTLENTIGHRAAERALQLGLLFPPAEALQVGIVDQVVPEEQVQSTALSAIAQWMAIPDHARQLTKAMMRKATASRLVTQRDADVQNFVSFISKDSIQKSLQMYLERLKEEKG
UniProt O43237, whole entry, looked up: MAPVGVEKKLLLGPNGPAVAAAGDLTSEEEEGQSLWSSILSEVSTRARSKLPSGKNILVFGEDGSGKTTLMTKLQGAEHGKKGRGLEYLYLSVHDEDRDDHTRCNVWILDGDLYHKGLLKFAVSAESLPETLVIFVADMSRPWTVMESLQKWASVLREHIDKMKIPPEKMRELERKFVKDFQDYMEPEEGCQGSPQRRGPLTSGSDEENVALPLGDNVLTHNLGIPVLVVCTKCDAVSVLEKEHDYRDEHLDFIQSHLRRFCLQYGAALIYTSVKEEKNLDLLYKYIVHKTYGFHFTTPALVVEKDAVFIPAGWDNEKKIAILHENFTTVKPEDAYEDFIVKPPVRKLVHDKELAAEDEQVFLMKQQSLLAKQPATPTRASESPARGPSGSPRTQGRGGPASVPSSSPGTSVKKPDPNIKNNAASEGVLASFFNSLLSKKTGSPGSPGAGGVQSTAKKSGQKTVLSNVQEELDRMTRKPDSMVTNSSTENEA
UniProt Q14919: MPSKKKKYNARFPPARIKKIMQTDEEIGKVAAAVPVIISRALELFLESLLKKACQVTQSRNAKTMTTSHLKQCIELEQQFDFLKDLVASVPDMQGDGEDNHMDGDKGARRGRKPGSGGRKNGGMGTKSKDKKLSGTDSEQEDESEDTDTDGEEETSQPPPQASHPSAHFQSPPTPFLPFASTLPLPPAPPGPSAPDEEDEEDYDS
UniProt Q96DA6: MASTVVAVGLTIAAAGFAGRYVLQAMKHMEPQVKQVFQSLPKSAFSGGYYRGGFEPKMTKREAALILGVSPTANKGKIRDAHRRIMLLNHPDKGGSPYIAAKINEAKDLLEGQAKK
UniProt Q9P2X0: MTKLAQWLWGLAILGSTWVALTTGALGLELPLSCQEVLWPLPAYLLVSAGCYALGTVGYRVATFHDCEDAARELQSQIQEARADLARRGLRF
UniProt Q9BU89: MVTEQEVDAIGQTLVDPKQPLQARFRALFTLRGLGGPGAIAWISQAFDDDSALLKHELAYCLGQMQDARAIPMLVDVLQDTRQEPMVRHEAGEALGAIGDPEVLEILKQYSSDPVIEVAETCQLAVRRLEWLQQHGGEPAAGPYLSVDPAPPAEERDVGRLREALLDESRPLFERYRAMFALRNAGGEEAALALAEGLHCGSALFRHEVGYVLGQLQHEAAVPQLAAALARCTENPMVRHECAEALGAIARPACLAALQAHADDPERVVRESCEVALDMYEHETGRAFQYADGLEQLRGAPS
UniProt O95905: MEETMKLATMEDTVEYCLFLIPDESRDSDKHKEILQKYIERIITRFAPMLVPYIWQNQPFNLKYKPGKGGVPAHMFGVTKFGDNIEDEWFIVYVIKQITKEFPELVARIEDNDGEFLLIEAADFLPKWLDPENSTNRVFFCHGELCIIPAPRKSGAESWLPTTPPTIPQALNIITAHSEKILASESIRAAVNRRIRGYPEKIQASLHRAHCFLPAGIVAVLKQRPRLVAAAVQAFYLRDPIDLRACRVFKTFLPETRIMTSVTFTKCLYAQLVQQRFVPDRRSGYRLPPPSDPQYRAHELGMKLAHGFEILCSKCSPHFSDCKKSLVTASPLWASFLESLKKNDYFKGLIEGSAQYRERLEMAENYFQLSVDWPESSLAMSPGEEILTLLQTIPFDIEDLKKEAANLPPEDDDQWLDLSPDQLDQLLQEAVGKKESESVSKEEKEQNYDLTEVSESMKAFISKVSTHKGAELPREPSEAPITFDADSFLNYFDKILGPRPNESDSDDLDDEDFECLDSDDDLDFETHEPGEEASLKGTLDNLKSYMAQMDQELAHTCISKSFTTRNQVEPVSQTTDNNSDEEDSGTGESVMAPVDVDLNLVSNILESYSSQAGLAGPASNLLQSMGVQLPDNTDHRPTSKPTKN
UniProt Q96KC8: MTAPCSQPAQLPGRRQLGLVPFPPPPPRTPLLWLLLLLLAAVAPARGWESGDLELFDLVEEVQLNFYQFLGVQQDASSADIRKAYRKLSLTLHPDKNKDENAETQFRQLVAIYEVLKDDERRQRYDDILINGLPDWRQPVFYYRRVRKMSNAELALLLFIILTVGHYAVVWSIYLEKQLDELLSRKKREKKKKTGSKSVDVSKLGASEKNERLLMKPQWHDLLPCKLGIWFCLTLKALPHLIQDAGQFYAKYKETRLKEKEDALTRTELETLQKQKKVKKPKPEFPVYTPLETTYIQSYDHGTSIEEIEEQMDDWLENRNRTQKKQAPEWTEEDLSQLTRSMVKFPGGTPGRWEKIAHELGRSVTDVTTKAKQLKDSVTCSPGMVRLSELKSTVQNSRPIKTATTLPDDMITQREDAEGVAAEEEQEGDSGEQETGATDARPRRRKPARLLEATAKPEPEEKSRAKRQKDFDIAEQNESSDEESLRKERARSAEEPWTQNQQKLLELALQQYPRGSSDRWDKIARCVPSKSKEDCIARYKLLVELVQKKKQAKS
UniProt Q13217: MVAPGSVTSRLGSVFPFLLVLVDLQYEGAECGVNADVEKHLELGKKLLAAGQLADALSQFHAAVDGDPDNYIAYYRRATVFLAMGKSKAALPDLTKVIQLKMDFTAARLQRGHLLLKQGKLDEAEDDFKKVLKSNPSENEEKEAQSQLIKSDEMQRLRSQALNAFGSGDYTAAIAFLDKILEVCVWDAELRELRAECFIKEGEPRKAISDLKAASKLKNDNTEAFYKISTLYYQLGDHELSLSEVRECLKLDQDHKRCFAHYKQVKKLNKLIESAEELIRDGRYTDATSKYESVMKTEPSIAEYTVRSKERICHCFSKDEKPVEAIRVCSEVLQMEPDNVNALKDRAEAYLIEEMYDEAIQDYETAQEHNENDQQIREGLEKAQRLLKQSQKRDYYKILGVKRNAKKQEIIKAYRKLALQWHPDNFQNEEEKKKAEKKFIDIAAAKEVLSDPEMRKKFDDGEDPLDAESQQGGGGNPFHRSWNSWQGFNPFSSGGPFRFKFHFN
UniProt Q8TBM8: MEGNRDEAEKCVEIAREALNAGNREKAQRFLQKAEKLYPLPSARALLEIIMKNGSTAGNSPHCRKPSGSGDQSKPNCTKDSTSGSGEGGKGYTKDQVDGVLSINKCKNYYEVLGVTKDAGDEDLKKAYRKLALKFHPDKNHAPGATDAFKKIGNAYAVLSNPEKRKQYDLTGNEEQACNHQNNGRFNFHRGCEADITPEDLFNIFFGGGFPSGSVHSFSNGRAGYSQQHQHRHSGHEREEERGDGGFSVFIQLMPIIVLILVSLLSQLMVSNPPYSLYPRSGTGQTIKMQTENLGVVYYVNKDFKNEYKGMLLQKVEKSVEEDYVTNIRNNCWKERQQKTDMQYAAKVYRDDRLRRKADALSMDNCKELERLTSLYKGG
UniProt P26358: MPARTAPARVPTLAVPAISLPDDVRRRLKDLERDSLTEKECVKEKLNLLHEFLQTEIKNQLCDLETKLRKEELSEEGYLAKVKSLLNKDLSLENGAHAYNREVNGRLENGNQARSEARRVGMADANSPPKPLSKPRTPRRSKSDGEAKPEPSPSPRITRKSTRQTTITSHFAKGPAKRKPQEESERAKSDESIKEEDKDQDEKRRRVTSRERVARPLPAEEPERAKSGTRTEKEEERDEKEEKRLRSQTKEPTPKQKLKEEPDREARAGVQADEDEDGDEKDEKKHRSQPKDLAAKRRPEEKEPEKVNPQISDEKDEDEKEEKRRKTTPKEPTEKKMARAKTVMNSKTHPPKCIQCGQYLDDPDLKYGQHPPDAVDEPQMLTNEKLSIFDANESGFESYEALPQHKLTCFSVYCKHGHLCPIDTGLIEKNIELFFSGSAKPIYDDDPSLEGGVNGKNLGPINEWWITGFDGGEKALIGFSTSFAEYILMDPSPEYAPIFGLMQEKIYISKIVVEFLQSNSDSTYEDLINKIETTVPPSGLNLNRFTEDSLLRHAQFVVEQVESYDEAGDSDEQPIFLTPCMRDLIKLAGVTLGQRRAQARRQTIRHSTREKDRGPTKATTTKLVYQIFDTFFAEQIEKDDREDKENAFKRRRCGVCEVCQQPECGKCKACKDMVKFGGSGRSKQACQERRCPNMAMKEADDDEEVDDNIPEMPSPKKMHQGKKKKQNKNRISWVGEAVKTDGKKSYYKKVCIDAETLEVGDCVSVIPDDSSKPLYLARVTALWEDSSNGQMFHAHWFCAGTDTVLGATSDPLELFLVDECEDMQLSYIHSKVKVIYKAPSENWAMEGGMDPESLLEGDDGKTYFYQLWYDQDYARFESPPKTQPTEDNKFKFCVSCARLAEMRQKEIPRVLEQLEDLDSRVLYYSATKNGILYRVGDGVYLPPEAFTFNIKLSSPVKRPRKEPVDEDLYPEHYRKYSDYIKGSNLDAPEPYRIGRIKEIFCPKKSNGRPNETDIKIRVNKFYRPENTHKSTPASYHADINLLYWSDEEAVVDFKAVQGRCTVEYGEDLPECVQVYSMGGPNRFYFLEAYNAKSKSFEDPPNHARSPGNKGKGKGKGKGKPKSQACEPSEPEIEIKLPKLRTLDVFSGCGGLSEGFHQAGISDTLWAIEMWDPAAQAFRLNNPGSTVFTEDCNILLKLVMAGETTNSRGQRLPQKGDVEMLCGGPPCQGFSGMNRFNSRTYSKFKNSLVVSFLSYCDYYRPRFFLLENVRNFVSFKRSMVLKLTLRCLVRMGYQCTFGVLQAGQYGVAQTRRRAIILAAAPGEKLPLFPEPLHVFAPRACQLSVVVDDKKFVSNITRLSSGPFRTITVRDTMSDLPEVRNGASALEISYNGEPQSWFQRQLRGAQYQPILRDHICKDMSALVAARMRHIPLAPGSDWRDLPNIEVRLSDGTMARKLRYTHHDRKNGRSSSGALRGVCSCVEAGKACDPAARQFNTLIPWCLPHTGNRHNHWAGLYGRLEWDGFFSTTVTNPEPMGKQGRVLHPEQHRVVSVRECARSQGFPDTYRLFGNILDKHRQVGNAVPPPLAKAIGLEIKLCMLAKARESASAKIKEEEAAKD
UniProt Q96G46: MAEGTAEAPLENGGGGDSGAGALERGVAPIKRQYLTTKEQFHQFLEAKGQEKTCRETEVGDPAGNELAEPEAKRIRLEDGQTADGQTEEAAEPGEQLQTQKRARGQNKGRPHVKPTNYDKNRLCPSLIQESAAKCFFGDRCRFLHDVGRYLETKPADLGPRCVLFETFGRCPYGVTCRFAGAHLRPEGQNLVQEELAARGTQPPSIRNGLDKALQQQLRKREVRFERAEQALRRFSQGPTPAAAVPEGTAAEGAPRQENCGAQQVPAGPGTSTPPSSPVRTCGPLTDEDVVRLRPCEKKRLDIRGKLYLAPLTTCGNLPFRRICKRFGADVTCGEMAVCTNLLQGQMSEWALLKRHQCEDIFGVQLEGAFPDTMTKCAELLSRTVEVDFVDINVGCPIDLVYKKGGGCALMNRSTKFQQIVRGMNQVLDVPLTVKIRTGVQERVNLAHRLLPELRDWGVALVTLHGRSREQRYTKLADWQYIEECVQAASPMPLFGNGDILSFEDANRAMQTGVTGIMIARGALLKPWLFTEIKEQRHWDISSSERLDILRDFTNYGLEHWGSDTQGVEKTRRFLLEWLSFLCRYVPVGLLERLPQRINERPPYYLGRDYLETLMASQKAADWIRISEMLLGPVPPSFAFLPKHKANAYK
UniProt Q9H2P9: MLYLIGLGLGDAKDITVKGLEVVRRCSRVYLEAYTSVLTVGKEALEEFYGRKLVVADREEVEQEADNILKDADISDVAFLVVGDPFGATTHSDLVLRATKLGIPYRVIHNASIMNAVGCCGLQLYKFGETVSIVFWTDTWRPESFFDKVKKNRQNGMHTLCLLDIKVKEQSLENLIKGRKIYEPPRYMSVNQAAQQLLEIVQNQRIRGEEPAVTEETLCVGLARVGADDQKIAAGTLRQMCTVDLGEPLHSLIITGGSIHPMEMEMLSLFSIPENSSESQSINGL
UniProt Q9NXW2: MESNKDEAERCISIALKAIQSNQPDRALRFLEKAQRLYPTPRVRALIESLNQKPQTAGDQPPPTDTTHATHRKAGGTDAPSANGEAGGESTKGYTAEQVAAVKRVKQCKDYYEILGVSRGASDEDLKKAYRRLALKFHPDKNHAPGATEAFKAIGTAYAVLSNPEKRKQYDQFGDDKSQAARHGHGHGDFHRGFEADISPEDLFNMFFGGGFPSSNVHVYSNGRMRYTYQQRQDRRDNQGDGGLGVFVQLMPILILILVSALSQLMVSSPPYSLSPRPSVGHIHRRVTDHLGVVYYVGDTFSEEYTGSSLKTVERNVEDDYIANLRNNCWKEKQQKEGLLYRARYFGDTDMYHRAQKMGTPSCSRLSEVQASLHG

volasertib = compound: CC[C@@H]1C(=O)N(C)c2cnc(Nc3ccc(C(=O)N[C@H]4CC[C@H](N5CCN(CC6CC6)CC5)CC4)cc3OC)nc2N1C(C)C [volasertib]
In short: as §1

[2] = compound: CC[C@H](C)N1C=C(C2=C(C=C(C=C21)C3=CN=C(C=C3)N4CCNCC4)C(=O)NCC5=C(C=C(NC5=O)C)C)C
In short: as §1

epoxomicin = compound: CC[C@H](C)[C@@H](C(=O)N[C@@H]([C@@H](C)O)C(=O)N[C@@H](CC(C)C)C(=O)[C@]1(CO1)C)NC(=O)[C@H]([C@@H](C)CC)N(C)C(=O)C [epoxomicin]
In short: as §1

[3] = compound: CCn1c(C(=O)N(C2CC2)C2CC2)cc2c3c(ncn3C)c(Nc3cc(C)n(C)n3)nc21
In short: as §1

[4] = compound: CCn1cc(-c2ccnc3[nH]c(-c4cccc(CN(C)C)c4)cc23)c(-c2ccc(NC(=O)N(C)C)cc2)n1
In short: as §1

[5] = compound: CN(C)CC(=O)Nc1ccc2[nH]c(=O)c3ccccc3c2c1
In short: as §1

rosiglitazone = compound: CN(CCOC1=CC=C(C=C1)C[C@H]2C(=O)NC(=O)S2)C3=CC=CC=N3 (racemic) [rosiglitazone]
In short: as §1

[6] = compound: CN1C2=C(C3=C1C(=O)N(N=C3)CC4=CC(=CC=C4)N)SC(=C2)S(=O)C
In short: as §1

[7] = compound: CN1CCC(CNc2ccc3ncc(-c4cccc(OC(F)(F)F)c4)n3n2)CC1
In short: as §1

Measured: log2 fold change

EAF1 (UniProt Q96JC9)
inactive: [1] 0.084 | volasertib 0.126 | [2] -0.107 | epoxomicin 0.008 | [3] -0.03 | [4] 0.266 | [5] -0.008 | rosiglitazone -0.028 | [6] 0.018 | [7] -0.079

DYNC1LI1 (UniProt Q9Y6G9)
inactive: [1] -0.004 | volasertib 0.048 | [2] 0.006 | epoxomicin 0.037 | [3] 0.008 | [4] -0.041 | [5] 0.022 | rosiglitazone 0.027 | [6] -0.007 | [7] -0.025

DPH1 (UniProt Q9BZG8)
inactive: [1] 0.032 | volasertib -0.053 | [2] 0.051 | epoxomicin 0.05 | [3] 0.02 | [4] 0 | [5] 0.047 | rosiglitazone 0.037 | [6] 0.002 | [7] -0.102

DUSP23 (UniProt Q9BVJ7)
inactive: [1] 0.018 | volasertib -0.024 | [2] 0.015 | epoxomicin 0.099 | [3] 0.031 | [4] -0.033 | [5] 0.068 | rosiglitazone -0.024 | [6] -0.072 | [7] 0.178

EDF1 (UniProt O60869)
inactive: [1] -0.004 | volasertib 0.087 | [2] -0.044 | epoxomicin 0 | [3] 0.012 | [4] 0.026 | [5] -0.038 | rosiglitazone 0.016 | [6] -0.001 | [7] 0.013

Quoted at random: 2 records from the list.
EDF1 (UniProt O60869)
inactive: [1] -0.004 | volasertib 0.087 | [2] -0.044 | epoxomicin 0 | [3] 0.012 | [4] 0.026 | [5] -0.038 | rosiglitazone 0.016 | [6] -0.001 | [7] 0.013

DYNC1LI1 (UniProt Q9Y6G9)
inactive: [1] -0.004 | volasertib 0.048 | [2] 0.006 | epoxomicin 0.037 | [3] 0.008 | [4] -0.041 | [5] 0.022 | rosiglitazone 0.027 | [6] -0.007 | [7] -0.025

The list continues:

DNAJC6 isoform 2 (UniProt O75061)
inactive: [1] 0.007 | volasertib -0.118 | [2] 0.051 | epoxomicin 0.045 | [3] 0.009 | [4] -0.003 | [5] -0.006 | rosiglitazone 0.034 | [6] -0.041 | [7] -0.02

ECM1 isoform 4 (UniProt Q16610)
inactive: [1] 0.027 | volasertib 0.052 | [2] -0.018 | epoxomicin 0.026 | [3] 0.038 | [4] 0.007 | [5] 0.02 | rosiglitazone 0.007 | [6] 0.086 | [7] 0.095

ECI1 (UniProt P42126)
inactive: [1] 0.01 | volasertib 0.061 | [2] -0.042 | epoxomicin -0.027 | [3] 0.001 | [4] 0.009 | [5] 0.014 | rosiglitazone 0 | [6] -0.025 | [7] 0.031

DYNC1LI2 (UniProt O43237)
inactive: [1] 0.324 | volasertib -0.021 | [2] -0.181 | epoxomicin -0.072 | [4] -0.041 | [5] 0.024 | [6] -0.007 | [7] 0.101

DNAJC7 (UniProt Q99615)
inactive: [1] -0.079 | [2] 0.104 | epoxomicin 0.073 | [4] -0.025 | [5] 0.014 | [6] -0.052 | [7] -0.142
active: volasertib -0.266

DRAP1 isoform 2 (UniProt Q14919)
inactive: [1] -0.005 | volasertib 0.044 | [2] -0.015 | epoxomicin -0.001 | [3] 0.01 | [4] -0.03 | [5] -0.051 | rosiglitazone 0 | [6] -0.063 | [7] -0.058

DNAJC19 (UniProt Q96DA6)
inactive: [1] -0.094 | volasertib -0.042 | [2] -0.014 | epoxomicin -0.015 | [4] -0.022 | [5] 0.002 | [6] -0.05 | [7] -0.148

DNLZ (UniProt Q5SXM8)
inactive: [1] 0 | volasertib 0.072 | [2] -0.039 | epoxomicin 0.213 | [3] 0 | [5] -0.029 | rosiglitazone 0.025 | [6] -0.089

DPM3 isoform 2 (UniProt Q9P2X0)
inactive: [1] 0 | volasertib 0.129 | [2] -0.107 | epoxomicin 0.186 | [3] 0.049 | [5] 0.017 | rosiglitazone 0.004 | [6] -0.007

EEA1 (UniProt Q15075)
inactive: [1] 0.036 | volasertib 0.031 | [2] -0.024 | epoxomicin 0.017 | [4] 0.019 | [5] -0.038 | [6] -0.023 | [7] 0.001

DNM2 (UniProt P50570)
active: [7] -0.349
inactive: [1] -0.013 | volasertib -0.015 | [2] 0.043 | epoxomicin 0.029 | [4] -0.091 | [5] 0.037 | [6] -0.044

DNAJB11 (UniProt Q9UBS4)
inactive: [1] -0.027 | volasertib 0.011 | [2] -0.036 | epoxomicin -0.003 | [3] 0.008 | [4] 0.012 | [5] -0.001 | rosiglitazone -0.007 | [6] 0.003 | [7] -0.047

DOCK7 (UniProt Q96N67)
inactive: [1] -0.086 | volasertib -0.005 | [2] 0.071 | epoxomicin -0.032 | [3] 0.009 | [4] 0.01 | [5] 0.034 | rosiglitazone 0.079 | [6] -0.02 | [7] -0.073

DOHH (UniProt Q9BU89)
active: rosiglitazone 0.471
inactive: [1] -0.035 | volasertib -0.027 | [2] 0.031 | epoxomicin -0.197 | [4] -0.1 | [5] 0.145 | [6] 0.025 | [7] 0.164

DTWD1 (UniProt Q8N5C7)
inactive: [1] -0.081 | volasertib -0.196 | [2] -0.07 | epoxomicin -0.054 | [4] -0.033 | [5] 0.036 | [6] -0.046 | [7] 0.089

DOK1 (UniProt Q99704)
inactive: [1] -0.125 | volasertib -0.615 | [2] 0.367 | epoxomicin -0.115 | [3] -0.102 | [5] -0.115 | rosiglitazone -0.043

ECD isoform 3 (UniProt O95905)
inactive: [1] 0.038 | volasertib -0.3 | [2] 0.056 | epoxomicin 0.011 | [3] -0.072 | [4] -0.069 | [5] -0.033 | rosiglitazone 0.027 | [6] -0.081 | [7] -0.097

DNAJC1 (UniProt Q96KC8)
inactive: [1] -0.097 | volasertib -0.185 | [2] 0.024 | epoxomicin 0.037 | [4] 0.014 | [5] 0.002 | [6] -0.01 | [7] -0.144

DNAJC3 (UniProt Q13217)
inactive: [1] -0.011 | volasertib 0 | [2] 0.08 | epoxomicin -0.021 | [3] 0.021 | [4] 0.029 | [5] -0.052 | rosiglitazone -0.006 | [6] 0.081 | [7] 0.091

DNAJB14 (UniProt Q8TBM8)
inactive: [1] 0.089 | volasertib -0.061 | [2] 0.028 | epoxomicin 0.109 | [3] -0.058 | [4] -0.045 | [5] 0.077 | rosiglitazone 0.025 | [7] -0.008

DPY19L1, A0A1B0GW05
inactive: [1] -0.044 | volasertib -0.201 | [2] -0.018 | epoxomicin 0.014 | [3] 0.074 | [5] 0.097 | rosiglitazone 0.08 | [6] -0.004

DNMT1 isoform 2 (UniProt P26358)
inactive: [1] 0.002 | volasertib 0.01 | [2] 0.029 | epoxomicin 0.005 | [3] -0.001 | [4] -0.022 | [5] 0.012 | rosiglitazone 0.007 | [6] -0.066 | [7] 0.079

DUS3L (UniProt Q96G46)
active: volasertib -0.331
inactive: [1] -0.162 | [2] 0.017 | epoxomicin 0.087 | [4] 0.02 | [5] 0.028 | [6] 0.021 | [7] -0.04

ECPAS (UniProt Q5VYK3)
inactive: [1] -0.188 | [2] 0.093 | [4] -0.029 | [5] 0.079 | [6] 0.026 | [7] -0.143
active: volasertib -0.602 | epoxomicin 0.614

DPYSL2 (UniProt Q16555)
inactive: [1] 0.055 | volasertib -0.037 | [2] 0.014 | epoxomicin 0.129 | [4] -0.073 | [5] 0.11 | [6] -0.058 | [7] -0.067

DPH5 isoform 5 (UniProt Q9H2P9)
inactive: [1] 0.047 | volasertib 0.08 | [2] -0.022 | epoxomicin 0.049 | [4] -0.018 | [5] -0.013 | [6] -0.115 | [7] 0.034

EDC4 (UniProt Q6P2E9)
active: volasertib -0.47
inactive: [1] -0.126 | [2] 0.042 | epoxomicin 0 | [4] 0.039 | [5] -0.006 | [6] 0.07 | [7] -0.084

DNAJB12 (UniProt Q9NXW2)
inactive: [1] -0.045 | volasertib -0.123 | [2] -0.033 | epoxomicin -0.003 | [4] 0.024 | [5] 0.022 | [6] 0.068 | [7] -0.081

From the supplement of paper PMC10849652
